# About 5,500 (1.4%) of roughly 400,000 compounds were called active. Inconclusive means that the source gave no clear call. Such entries were picked first, then a sample of the others. Calls come from the whole dose curve; as a rule, active = well fitted cell-killing curve with a large enough effect; inconclusive = small, poorly fitted or top-dose-only effect, or effect the other way; inactive = flat fitted curve, though single readings scatter. Where the call is inconclusive, the potency comes from a doubtful curve fit.
# Assay: qHTS assay for MDR1-selective chemotherapeutics: Primary screen using the parental adenocarcinoma cell KB-3-1; note: nearly all actives have a fitted effect of over 60% in size
# Details: KB-3-1 viability, CellTiter-Glo ATP luminescence, 72 h; activity change, negative = cytotoxic: at 46.1 µM (top of the series)
# In short: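 Viability of parental KB-3-1 cells, measured by CellTiter-Glo luminescence, followed a 72 h incubation at 37 °C with pinned compounds in phenol-red-free DMEM containing 10% FBS.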
# % is set by controls: 0 for no effect and ±100 for the full control effect; potency is the fitted concentration of half-maximal effect.
Compound,Potency,"activity change, negative = cytotoxic"
CC[C@H](C)[C@@H]1OC(=O)[C@@H](C)[C@@H](CC)NC(=O)[C@H](C)N(C)C(=O)C(C)(C)C(=O)C(C)NC(=O)[C@H](Cc2ccccc2)N(C)C(=O)[C@H](C(C)C)N(C)C(=O)CNC(=O)[C@H](CC(C)C)N(C)C(=O)CNC1=O (stereo partly specified),active: 1.16 µM,–
COc1cccc(C(=O)Nc2ccc3c(c2)OC[C@H](C)N(C(=O)C2CCCC2)C[C@@H](C)[C@@H](OC)CN(C)C3=O)c1,inactive,–
CC(/C=C/c1ccccc1)=N/NC(=O)CNC(=O)c1ccc2c(c1)OCO2,inactive,–
COCCn1c(N)c(C#N)c2nc3ccccc3nc21,inactive,–
Cc1ccc([N+](=O)[O-])cc1CN1CCN(c2ncc(Cc3ccccc3)cn2)CC1,"inconclusive: 18.4 µM [cytotoxic, single point]",–
Cc1cc(-c2nnc(-c3cccc(C(F)(F)F)c3)o2)no1,inactive,–
CCN(CC)c1ccc(-c2nc3cnccc3n2C)cc1,"inconclusive: 16.4 µM [cytotoxic, single point]",–
CCn1ncc(Br)c1C(=O)Nc1ccn(C23CC4CC(CC(C4)C2)C3)n1,"inconclusive: 20.6 µM [cytotoxic, partial curve, poor fit]",–
O=C1NC(=Nc2ccccc2Cl)S/C1=C\c1cccc([N+](=O)[O-])c1,"inconclusive: 29.1 µM [cytotoxic, single point]",–
NC(=O)C(c1ccccn1)c1ncc(C(F)(F)F)cc1Cl (stereo unspecified),–,inconclusive: 5.14%
CCCCc1cc(=O)oc2cc(C)cc(O)c12,"inconclusive: 23.1 µM [cytotoxic, single point]",–
CCc1ccc(CNC(=O)CCCn2ccc3cc(S(=O)(=O)N4CCCC4)ccc32)cc1,active: 5.8 µM,–
OC(CNc1nc(C(F)(F)F)nc2ccccc12)c1ccccc1 (stereo unspecified),"inconclusive: 23.1 µM [cytotoxic, partial curve, poor fit]",–
CC(C)c1ccc(S(=O)(=O)/N=C2\C=C(NS(=O)(=O)c3ccccc3)C(=O)c3ccccc32)cc1,–,inconclusive: -2.54%
CCC(Cn1nnc2ccccc2c1=O)NC(=O)Nc1ccccc1OC (stereo unspecified),inactive,–
Clc1ccc(-c2cnc3ccccc3n2)cc1,"inconclusive: 8.2 µM [rising, partial curve]",–
Cc1cc(-c2c(C)[nH]n(-c3ccccc3)c2=O)n[nH]1,"inconclusive: 29.1 µM [cytotoxic, single point]",–
CCOc1ccc(/C=N/NC(=O)c2c(C)n(C)c3ccc(OC)cc23)cc1,active: 8.2 µM,–
COc1cccc(Nc2nc3cc(C)ccc3nc2NS(=O)(=O)c2ccc(Cl)cc2)c1,"inconclusive: 9.2 µM [cytotoxic, partial curve, poor fit]",–
O=C(Nc1ccc(Cl)cn1)c1ccccc1[N+](=O)[O-],"inconclusive: 29.1 µM [cytotoxic, single point]",–
O=C(c1cnn(C(=O)c2ccco2)c1)c1cc(F)ccc1O,inactive,–
COc1ccc(S(=O)(=O)NCc2ccccn2)cc1NC(=O)c1ccc(C)cc1,active: 9.2 µM,–
COc1ccc(C2(C(=O)NCCCN(C)C)CCOCC2)cc1,"inconclusive: 25.9 µM [rising, single point]",–
CC(=O)Oc1ccccc1Cn1c(C)c(C(=O)N(C)Cc2ccc(F)cc2)sc1=O,"inconclusive: 18.4 µM [cytotoxic, single point]",–

# Arranged by number of heavy atoms (descending): part of the list above
Compound,Potency,"activity change, negative = cytotoxic"
CC[C@H](C)[C@@H]1OC(=O)[C@@H](C)[C@@H](CC)NC(=O)[C@H](C)N(C)C(=O)C(C)(C)C(=O)C(C)NC(=O)[C@H](Cc2ccccc2)N(C)C(=O)[C@H](C(C)C)N(C)C(=O)CNC(=O)[C@H](CC(C)C)N(C)C(=O)CNC1=O (stereo partly specified),active: 1.16 µM,–
COc1cccc(C(=O)Nc2ccc3c(c2)OC[C@H](C)N(C(=O)C2CCCC2)C[C@@H](C)[C@@H](OC)CN(C)C3=O)c1,inactive,–
Cc1ccc([N+](=O)[O-])cc1CN1CCN(c2ncc(Cc3ccccc3)cn2)CC1,"inconclusive: 18.4 µM [cytotoxic, single point]",–
COc1ccc(S(=O)(=O)NCc2ccccn2)cc1NC(=O)c1ccc(C)cc1,active: 9.2 µM,–
CCOc1ccc(/C=N/NC(=O)c2c(C)n(C)c3ccc(OC)cc23)cc1,active: 8.2 µM,–

# Further structures follow:

Compound,Potency,"activity change, negative = cytotoxic"
O=C(Nc1ccc(Oc2c(F)c(F)c(F)c(F)c2F)cc1)OC1CCN2Cc3ccccc3N=C12 (stereo unspecified),active: 8.2 µM,–
NC(=Nc1ccccc1)NC(=O)c1nc(Cl)c(N)nc1N,"inconclusive: 29.1 µM [cytotoxic, single point]",–
O=C(Nc1cnc2ccccc2c1)N1CCOCC1,"inconclusive: 29.1 µM [rising, partial curve, poor fit]",–
CCCCc1nc2cc(C(=O)N3CCCC3)ccc2o1,inactive,–
COc1ccc(Cc2nnc3n2N=C(c2cc4ccccc4o2)CS3)cc1OC,"inconclusive: 20.6 µM [cytotoxic, single point]",–
Cn1c(CC(=O)Nc2ccccc2F)nnc1SCC(=O)Nc1nccs1,inactive,–
CCOC(=O)Cc1csc(/N=C/c2c(O)n(-c3ccccc3C(F)(F)F)c(=O)c3ccccc23)n1,"inconclusive: 11.6 µM [cytotoxic, partial curve]",–
COc1ccc(C)cc1S(=O)(=O)NNc1nc(C)cc(C)n1,"inconclusive: 29.1 µM [rising, single point]",–
O=C1C=C(NCc2ccc(Cl)c(Cl)c2)C2(CCCCC2)O1,"inconclusive: 25.9 µM [cytotoxic, single point]",–
CC(C)Oc1ccc(C(=O)/C=C2/C(=O)Nc3ccccc32)cc1,"inconclusive: 23.1 µM [cytotoxic, single point]",–
CNc1n[nH]c(=S)s1,inactive,–
COc1ccc(-c2cc(C(=O)Nc3cc(C)ccc3O)no2)cc1,"inconclusive: 29.1 µM [cytotoxic, single point]",–
CCCCn1c(CN2CCN(c3cccc(Cl)c3)CC2)nc2c1c(=O)n(C)c(=O)n2C,"inconclusive: 16.4 µM [cytotoxic, single point]",–
CCc1nc2ccccc2n1CCc1ccccc1,inactive,–
N#Cc1c(N2CCCC2)nc(N)c2c(N)nc(N3CCCC3)cc12,"inconclusive: 29.1 µM [cytotoxic, single point]",–
COc1ccc(OCCCCN(C)Cc2ccccc2)cc1,inactive,–
Cc1ccc(C(=O)Nc2ccc(C(=O)O)cc2)cc1S(=O)(=O)NCc1ccccc1,inactive,–
CC1(C)Cc2c(C#N)c(N3CCN(C(=O)c4ccccc4)CC3)nc(Cc3ccccc3)c2CO1,"inconclusive: 10.3 µM [cytotoxic, partial curve, poor fit]",–
Cc1[nH]c2ccccc2c1/C=N/NC(=O)c1cccc(S(=O)(=O)Nc2cccc(C(F)(F)F)c2)c1,inactive,–
COC(=O)c1ccc(/C=C(\C#N)c2ccccn2)cc1,"inconclusive: 29.1 µM [cytotoxic, single point]",–
CCC1C(=O)N(c2nc(C)cc(C)n2)N=C1C (stereo unspecified),inactive,–
CC1=C(C(=O)N2CCCCCC2)CC(CC(=O)NCCCCc2ccccc2)C(=O)N1CCC1=CCCCC1 (stereo unspecified),"inconclusive: 23.1 µM [cytotoxic, single point]",–
CC(C)C1C(=O)N(Cc2cn(CC3CCCCC3)nn2)CCS(=O)(=O)N1Cc1ccc(-c2ccc(F)cc2)cc1 (stereo unspecified),"inconclusive: 29.1 µM [cytotoxic, single point]",–
COc1cc(-c2nnc(Sc3ccc(C(F)(F)F)cc3[N+](=O)[O-])o2)cc(OC)c1OC,inactive,–

Compound,Potency,"activity change, negative = cytotoxic"
Cc1c(C(=O)N2CCC(C)CC2)sc2ncnc(N(C)c3ccccc3)c12,"inconclusive: 0.461 µM [cytotoxic, full curve]",–
CCNc1nc(C#N)nc(N2CCOCC2)n1,inactive,–
COc1ccc(NC(=O)CCC2CCCCC2)cc1S(=O)(=O)N1CCCCC1,active: 5.17 µM,–
CCCOc1ccc(CCCN=C(N)N)cc1Cl,active: 20.6 µM,–
CCn1c(CN2CCN(c3ccc(Cl)cc3)CC2)nc2ccccc21,"inconclusive: 12.6 µM [cytotoxic, partial curve, poor fit]",–
COc1ccc(CCN2C(=O)CSC2=Nc2ccc(C(C)C)cc2)cc1OC,active: 3.66 µM,–
O=C(NCc1ccc(Cl)cc1)N1CCN(S(=O)(=O)c2ccccc2)CC1,"inconclusive: 9.2 µM [rising, partial curve]",–
C=CCn1c(C(CCCC)CC(C)O)n[nH]c1=S (stereo unspecified),inactive,–
COc1ccc(/C=N\NC(=O)c2ccccc2Cl)cc1COc1c(F)c(F)c(F)c(F)c1F,"inconclusive: 29.1 µM [cytotoxic, single point]",–
Cc1cccc(/C=C/c2nc3ccccc3c(=O)[nH]2)c1,"inconclusive: 18.4 µM [cytotoxic, partial curve]",–
CC[C@@]12C(=O)N(c3cccc(F)c3)C(=O)N1[C@H](c1ccc(F)cc1)[C@@H]1C(=O)N(C3CCCCC3)C(=O)[C@@H]12,"inconclusive: 29.1 µM [cytotoxic, partial curve, poor fit]",–
Clc1ccc(N(CC2CO2)CC2CO2)cc1 (stereo unspecified),inactive,–
CCn1c(C)cc2c(c1=O)C(c1ccccc1Br)C(C#N)=C(N)O2 (stereo unspecified),"inconclusive: 11.6 µM [rising, partial curve, poor fit]",–
CC(C(=O)N(C)C1CCS(=O)(=O)C1)N1C(=O)/C(=C/c2ccc(F)cc2)SC1=S (stereo unspecified),inactive,–
CCOc1ccc(NC(=O)CSC2=Nc3ccccc3C3=NC(CC(=O)NCc4cccs4)C(=O)N23)cc1 (stereo unspecified),inactive,–
CCc1nc2ccc(C(=O)N3CCN(C(C)=O)CC3)cn2c1N(CC)C(=O)NCCc1ccccc1,–,inconclusive: -0.0042%
CSCC[C@H](N)C(=O)N1CCC(C(=O)N[C@H](C)C(=O)NC(C)c2ccccc2)CC1 (stereo partly specified),inactive,–
Fc1ccc(/C=C2\CCCC3=C2Nc2ncnn2C3c2ccc(F)cc2)cc1 (stereo unspecified),active: 20.6 µM,–
Cc1noc(C)c1S(=O)(=O)N1CCC(C(=O)c2ccccc2)CC1,inactive,–
O=C(OCc1ccc(O)cc1)c1c(-c2ccsc2)oc2ccc(N3CCOCC3)cc12,"inconclusive: 20.6 µM [cytotoxic, single point]",–
CC1=C(c2ccc(C)c(C)c2)S(=O)(=O)N=C1N1CCC(C(=O)NC(C)c2ccccc2)CC1 (stereo unspecified),"inconclusive: 20.6 µM [cytotoxic, single point]",–
COc1ccc(C(C(=O)NC2CCCCC2)N(C(=O)CCl)c2ccc(C)cc2)cc1 (stereo unspecified),"inconclusive: 29.1 µM [cytotoxic, single point]",–
Cc1cc(=O)c2cc(Br)ccc2[nH]1,inactive,–
